Measurements taken from patent US20250314636A1, “METHOD OF PREPARING AND EXPANDING A POPULATION OF IMMUNE CELLS FOR CANCER THERAPY, POTENCY ASSAY FOR TUMOR RECOGNITION, BIOLOGICAL VACCINE PREPARATION AND EPITOPETARGET FOR ANTIBODIES” (FUNDAÇÃO D. ANNA DE SOMMER CHAMPALIMAUD E DR. CARLOS MONTEZ …, priority 2022, published 2025).
At least one structure is not confirmed: it was looked up by name or label, or the drawing left a doubt.

System: PANC-1
Assay: Cellular recognition assay: allogeneic tumor cell line PANC-1
Type: cell-based, human
Conditions: CD1d restricted IFN-γ production
Description: All antibodies are commercially available.
siRNA against MR1 was used to silence MR1 expression using Silencer Select Pre-designed siRNA (Ambion, Thermo Fisher)). A scramble siRNA was used as negative control (Ambion, Thermo Fisher). Briefly, target cells were seeded 24 h before transfection, both siRNAs were used at 10 μM with lipofectamine RNA iMAX diluted in OptiMEM, incubated for 5 minutes, and added on top of the cells. Cells were incubated for 48 h before being used on the respective assays.
Autologous tumor, confirmed by standard histology, was viably snap frozen and then thawed to be used as targets in recognition assays once TIL had been expanded. Small autologous tumor pieces (1 mm^3) from tumor areas that contained tumor cells were tested in duplicates. TIL were incubated with tumor pieces or allogeneic tumor cells in CellGenix GMP DC media supplemented with 10% serum in the presence of IL-2 (50 IU/mL) and IL-15 (10 IU/mL) for testing MAIT—cells. TCR αβ T-cells or TCR γδ cells were tested for autologous or allogeneic tumor recognition using 100 IU IL-2/mL and 100 IU IL-15/mL; or using 100 IU IL-7/mL combined with 100 IU IL-15/mL. […]

## CO[C@H]1C[C@@H]2CC[C@@H](C)[C@@](O)(O2)C(=O)C(=O)N2CCCC[C@H]2C(=O)O[C@H]([C@H](C)C[C@@H]2CC[C@@H](O)[C@H](OC)C2)CC(=O)[C@H](C)/C=C(\C)[C@@H](O)[C@@H](OC)C(=O)[C@H](C)C[C@H](C)/C=C/C=C/C=C/1C [rapamycin]
  PANC-1 recognition by γδ+ TIL after pretreatment of PANC-1 cells: not changed
